The record followed here is the supplement of paper PMC12889115.

The structures appear in SMILES notation. The list shows a part of the results. Values are raw readings; no control value is given beside them.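 First-pass screen: polymyxin B was added at a level that permeabilizes the Salmonella outer membrane while sparing the inner membrane. DMSO wells, with and without polymyxin B, defined maximum growth. Because plates differed from one another, each plate's data were ranked separately and the compounds with the lowest OD600 were carried forward as hits.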

In this test the test system is Salmonella enterica serovar Typhimurium SL1344. Description: bacterial growth OD600 after 18 h with compound and polymyxin B; higher = more bacterial growth (less inhibition). To be noted: 50 µM, Mueller-Hinton broth.

As for `CC(C)=CCN1CCC(C(=O)Nc2cccc(-c3nnc(C)s3)c2)CC1`, where the note is “polymyxin B 1 µg/mL”, the “bacterial growth OD600” value is 1.09. Take `O=C(CC1=CCCCC1)N1CCc2onc(-c3ccccc3F)c2C1`: the “bacterial growth OD600” value (polymyxin B 0.75 µg/mL) stood at 0.407.

Consider `COc1ccc(-c2n[nH]cc2CN2CCOc3ccc(C(O)Cc4ccccc4)cc3C2)cc1` (stereo unspecified), for which, under “polymyxin B 0.75 µg/mL”, the “bacterial growth OD600” value came to 0.006. Turning to `CCOC(=O)C1CCN(C2CCN(c3nc4nonc4nc3N(C)C)CC2)CC1`, the “bacterial growth OD600” value (polymyxin B 0.75 µg/mL) was determined as 0.866. Turning to `C=CCOc1ccccc1CN1CC[C@@H](N2CCN(c3ccccn3)CC2)[C@H](O)C1`, where the note is “polymyxin B 1 µg/mL”, the “bacterial growth OD600” value turned out to be 0.973. On to `O=C(Cn1nnnc1CN1CCOCC1)NCCc1ccc(F)cc1`, for which, where the note is “polymyxin B 0.75 µg/mL”, the “bacterial growth OD600” value was 0.869.

For `Cc1nnsc1C(=O)NC(C)c1cnn(-c2cccc3ccccc23)c1C` (stereo unspecified), the “bacterial growth OD600” value (polymyxin B 1 µg/mL) turned out to be 0.905.

For the compound `CCOC(=O)C1(CCOc2ccccc2)CCCN(Cc2cnc(N(C)C)s2)C1` (stereo unspecified), where the note is “polymyxin B 1 µg/mL”, the “bacterial growth OD600” value amounted to 0.447.

In the case of `COc1ccccc1NC(=O)Nc1ccnn1C1CCN(Cc2cccc(C)n2)CC1`, the “bacterial growth OD600” value (polymyxin B 0.75 µg/mL) was found to be 0.828.

Consider `CCn1nc(C)c(CNC2CCN(c3ccc(C(=O)N4CCCC(CO)C4)cc3)CC2)c1C` (stereo unspecified), for which, for the setting “polymyxin B 0.75 µg/mL”, the “bacterial growth OD600” value is 0.844. Same read-out and setting: in the case of `Cc1ccc(C(=O)N2CCc3onc(-c4cccc(F)c4)c3C2)s1` it was 0.006; in that of `Cc1ccc(C(=O)Nc2ccc(N3CCC(NCc4ccc(C)o4)CC3)cc2)c(C)c1`, 0.904. Consider `O=C1N(CC2CCC2)CCCC12CCN(C1Cc3ccccc3C1)C2` (stereo unspecified), for which the “bacterial growth OD600” value (polymyxin B 1 µg/mL) turned out to be 0.053. Turning to `COc1ccc2c(c1)CC(C(=O)N1CCC(CCC(=O)Nc3ccccc3)CC1)CO2` (stereo unspecified), the “bacterial growth OD600” value (polymyxin B 1 µg/mL) was 1.1.

Regarding `O=C(NCC1CC(Cc2ccc(F)cc2)=NO1)c1csc(-c2cccs2)n1` (stereo unspecified), under “polymyxin B 0.75 µg/mL”, the “bacterial growth OD600” value came out at 0.066. With `COC(=O)CCCC(=O)N1CCCC(N2CCN(c3cccc(Cl)c3)CC2)C1` (stereo unspecified), under “polymyxin B 1 µg/mL”, the “bacterial growth OD600” value was 0.744. For `CSc1ccc(CC2(CCC(=O)N(Cc3c(C)nn(C)c3C)C(C)C)CCC(=O)N2)cc1` (stereo unspecified), where the note is “polymyxin B 0.75 µg/mL”, the “bacterial growth OD600” value is 0.844. As for `COC(=O)[C@@H]1CCCN1c1ccc(-c2nc(COc3ccccc3)no2)cn1`, where the note is “polymyxin B 1 µg/mL”, the “bacterial growth OD600” value was found to be 0.817. For `CN(Cc1cccc2ncccc12)C(=O)CC1(c2cccc(C(F)(F)F)c2)CC(=O)N(C2CC2)C1=O` (stereo unspecified), the “bacterial growth OD600” value (polymyxin B 0.75 µg/mL) was 0.633. The same measure, in the same setting: in the case of `Cc1cccc(-c2cnc(C)nc2C2CCCN(C(=O)c3cccc(F)c3F)C2)c1` (stereo unspecified) it was 0.182; in that of `O=C(NCCN1CCOCC1)c1ccc(N2CCC(NCCn3ccc4ccccc43)CC2)cc1`, 0.839; in that of `Nc1cc(C(=O)N2CCC(C3CCN(Cc4cccnc4)CC3)C2)ccn1` (stereo unspecified), 0.836. Consider `CSCCC(=O)NC1CC(=O)N(CCc2cccc(Cl)c2)C1` (stereo unspecified), for which the “bacterial growth OD600” value (polymyxin B 1 µg/mL) amounted to 0.892. On to `COc1cccc(C(=O)NCC2Cc3cc(C)cc(-c4cc(C(C)=O)ccc4F)c3O2)c1OC` (stereo unspecified), for which the “bacterial growth OD600” value (polymyxin B 0.75 µg/mL) is 0.5. Regarding `Cc1nnc(SCC(=O)NC2CCCN(C3Cc4ccccc4C3)C2)s1` (stereo unspecified), the “bacterial growth OD600” value (polymyxin B 1 µg/mL) is 0.932. Take `COc1ccc(CC2(CCC(=O)NCc3cc(F)cc(F)c3)CCC(=O)N2)c2ccccc12` (stereo unspecified): the “bacterial growth OD600” value (polymyxin B 0.75 µg/mL) is 0.741. Take `CC(CNCc1cccnc1N1CCOCC1)Cc1ccc2c(c1)OCO2` (stereo unspecified): the “bacterial growth OD600” value (polymyxin B 1 µg/mL) was 0.951. On to `CC1CN(CCC(=O)NCC(c2ccncc2)N2CCOCC2)Cc2cc(Cl)ccc2O1` (stereo unspecified), for which the “bacterial growth OD600” value (polymyxin B 0.75 µg/mL) was found to be 1.02. Consider `CSCCC(=O)N1CCOC(CCN(C)C)C1` (stereo unspecified), for which, under “polymyxin B 0.75 µg/mL”, the “bacterial growth OD600” value was determined as 0.9.

`COc1cccc(CCC2CCCN(C(=O)c3ccc(=O)n(C)n3)C2)c1` (stereo unspecified): where the note is “polymyxin B 0.75 µg/mL”, the “bacterial growth OD600” value came to 0.827. Take `COc1cccc(-c2cc(CC3(O)CCN(Cc4cccc5cccnc45)CC3)on2)c1`: where the note is “polymyxin B 1 µg/mL”, the “bacterial growth OD600” value was found to be 0.906.
